What all share (assay): two-hybrid; OsYchF1 and truncated derivatives in pGBKT7 (bait), OsGAP1 in pGADT7 (prey), co-transformed into yeast strain AH109; growth on SD/-Leu-Trp-His-Ade media, 7 days at 30 °C
The target in assay [1] is T1, pGBKT7-OsYchF1 (helical domain) (rice (Oryza sativa)) (UniProt Q6Z1J6).
T1 sequence: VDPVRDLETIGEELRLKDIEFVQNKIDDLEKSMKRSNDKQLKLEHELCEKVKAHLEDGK

In assay [2] the target is T2, pGBKT7-OsYchF1 (TGS domain) (rice (Oryza sativa)) (UniProt Q6Z1J6).
T2 sequence: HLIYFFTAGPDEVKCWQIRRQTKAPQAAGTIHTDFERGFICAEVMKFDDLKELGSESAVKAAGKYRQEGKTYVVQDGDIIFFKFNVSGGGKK

Assay [3] concerns the target T3, pGBKT7-OsYchF1 (G domain) (rice (Oryza sativa)) (UniProt Q6Z1J6).
T3 sequence: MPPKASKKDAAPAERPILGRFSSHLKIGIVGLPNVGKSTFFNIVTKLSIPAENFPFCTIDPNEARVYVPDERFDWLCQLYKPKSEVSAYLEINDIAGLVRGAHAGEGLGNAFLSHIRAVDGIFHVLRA

No constants are given. Whether binding was seen depends on the method and setting. Some entries that bind do so weakly or less than the wild type.

B1: pGADT7-OsGAP1 (protein, UniProt Q6YWF1 1-165)
chain: MLGHLVGLVKVRVVRGVNLAVRDLRSSDPYVIVRMGKQKLKTRVIKKTTNPEWNDELTLSIEDPAVPVRLEVYDKDTFIDDAMGNAELDIRPLVEVVKMKIEGVADNTVVKKVVPNRQNCLAEESTIYISEGKVKQDVVLRLRDVECGEIELQLQWVDIPGSKGV
As to B1, the binding result is recorded as “no binding” in assay [1], “binds” in assay [2] and “binds” in assay [3].

The record behind these values is paper PMC12480156, “From biophysical interaction to structural modeling: bi-terminal G and TGS domains drive rice OsYchF1-OsGAP1 complex formation” (Botanical Studies, 2025).
